Results are given in words; binding and its absence hold for the method and conditions named. Binding seen in cells or lysates may run through a third protein. Some results given as binding are weak or reduced against the parent protein; the word gives no strength.
Target: PB2 construct (amino acids 1–33) (influenza virus strain A/Victoria/3/1975(H3N2)) (UniProt P31345)
Test: pull-down

By UniProt entry, the sequences of proteins in these tests, tags left out. Residues count along the entry.
UniProt P31345, residues 1-33: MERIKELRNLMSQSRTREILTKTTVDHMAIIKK
UniProt P31341, residues 676-757: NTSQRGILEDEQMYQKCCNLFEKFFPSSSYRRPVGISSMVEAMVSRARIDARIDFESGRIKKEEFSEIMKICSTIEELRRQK

PB1-(676–757), C-terminal fragment of the influenza polymerase PB1 subunit, N-terminal FLAG tag (from UniProt P31341 676-757) (domain or fragment)
binding: binds
